Our source for the binding values is PMC12711580, “Florigen activation complex forms via multifaceted assembly in Arabidopsis” (Nature, 2025).

Amino acid sequences for entries named in this document (tags omitted).
UniProt Q96299: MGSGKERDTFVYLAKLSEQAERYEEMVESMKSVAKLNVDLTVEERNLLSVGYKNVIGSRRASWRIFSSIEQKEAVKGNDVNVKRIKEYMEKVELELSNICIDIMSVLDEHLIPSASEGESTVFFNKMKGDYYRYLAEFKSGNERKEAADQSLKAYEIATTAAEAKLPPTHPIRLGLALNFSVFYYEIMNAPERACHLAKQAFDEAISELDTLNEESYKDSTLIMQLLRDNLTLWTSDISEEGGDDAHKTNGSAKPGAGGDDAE
UniProt Q9SXZ2: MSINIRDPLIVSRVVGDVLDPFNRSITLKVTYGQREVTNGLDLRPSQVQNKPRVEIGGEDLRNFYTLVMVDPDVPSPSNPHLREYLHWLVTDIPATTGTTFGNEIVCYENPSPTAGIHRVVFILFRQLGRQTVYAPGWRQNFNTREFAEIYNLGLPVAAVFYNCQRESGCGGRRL

No constants are given. Whether binding was seen depends on the method and setting. For some assays here: Where a sequence is shown, tags or fusion partners need not be part of it.

Assay in all cases: SEC; gel filtration of mixed purified proteins without DNA, fractions analysed on gel; both purified
On the technique in general: SEC sorts molecules by how far they enter the pores of the column.

Assay [1] deals with GRF9 (14-3-3μ) (Arabidopsis thaliana) (UniProt Q96299).
For assay [2], the target named is T1, GRF2 (14-3-3ω) (Arabidopsis thaliana) (UniProt Q01525).
T1 sequence: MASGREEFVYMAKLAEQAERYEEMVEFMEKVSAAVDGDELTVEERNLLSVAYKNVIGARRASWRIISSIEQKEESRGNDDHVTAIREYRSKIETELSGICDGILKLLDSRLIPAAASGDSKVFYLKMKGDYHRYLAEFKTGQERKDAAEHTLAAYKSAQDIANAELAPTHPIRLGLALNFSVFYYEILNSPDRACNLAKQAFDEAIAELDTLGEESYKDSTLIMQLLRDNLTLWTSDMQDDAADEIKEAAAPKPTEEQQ

In assay [3] the target is T2, GRF10 (14-3-3ε) (Arabidopsis thaliana) (UniProt P48347).
T2 sequence: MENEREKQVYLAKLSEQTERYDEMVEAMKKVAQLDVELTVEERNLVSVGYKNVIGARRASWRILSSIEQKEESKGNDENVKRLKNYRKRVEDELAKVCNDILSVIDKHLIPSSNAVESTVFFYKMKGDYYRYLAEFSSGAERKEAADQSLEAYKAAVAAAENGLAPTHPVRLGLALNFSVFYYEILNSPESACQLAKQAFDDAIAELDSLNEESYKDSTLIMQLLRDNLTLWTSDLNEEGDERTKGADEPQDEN

Assay [4] addresses T3, GRF6 (14-3-3ƛ) (Arabidopsis thaliana) (UniProt P48349).
T3 sequence: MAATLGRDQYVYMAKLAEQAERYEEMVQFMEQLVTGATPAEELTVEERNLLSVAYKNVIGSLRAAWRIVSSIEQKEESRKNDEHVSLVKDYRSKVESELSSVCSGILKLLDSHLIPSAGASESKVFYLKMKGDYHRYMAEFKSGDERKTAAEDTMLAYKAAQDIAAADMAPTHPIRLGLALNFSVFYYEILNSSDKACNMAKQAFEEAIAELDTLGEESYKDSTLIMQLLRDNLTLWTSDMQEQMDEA

Assay [5] deals with T4, GRF7 (14-3-3ν), recombinant (Arabidopsis thaliana, UniProt Q96300 1-265).
T4 construct: GRF7 (14-3-3ν), Arabidopsis thaliana; cloned into pMAL-c5X-His or a modified pMAL-c5X vector; also called GRF7-6His; source: E. coli, purified (Ni-NTA, size-exclusion chromatography)
T4 sequence (looked up): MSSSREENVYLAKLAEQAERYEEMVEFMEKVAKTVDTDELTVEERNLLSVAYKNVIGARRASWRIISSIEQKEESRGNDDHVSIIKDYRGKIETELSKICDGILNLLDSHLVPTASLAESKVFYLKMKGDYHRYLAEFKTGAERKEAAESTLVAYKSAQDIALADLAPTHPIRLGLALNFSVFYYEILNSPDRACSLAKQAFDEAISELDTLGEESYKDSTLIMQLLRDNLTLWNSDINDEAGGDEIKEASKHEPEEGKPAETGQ

Consider “FT (FLOWERING LOCUS T), recombinant, used in gel filtration (from UniProt Q9SXZ2 1-175)”, for which the binding result in assay [1], in assay [2], in assay [3] and in assay [4] was “no binding” each time.

B1: MBP-FD^(2–285 (T282A)) (protein, UniProt Q84JK2 2-285)
chain: LSSAKHQRNHRLSATNKNQTLTKVSSISSSSPSSSSSSSSTSSSSPLPSQDSQAQKRSLVTMEEVWNDINLASIHHLNRHSPHPQHNHEPRFRGQNHHNQNPNSIFQDFLKGSLNQEPAPTSQTTGSAPNGDSTTVTVLYSSPFPPPATVLSLNSGAGFEFLDNQDPLVTSNSNLHTHHHLSNAHAFNTSFEALVPSSSFGKKRGQDSNEGSGNRRHKRMIKNRESAARSRARKQAYTNELELEVAHLQAENARLKRQQDQLKMAAAIQQPKKNTLQRSSAAPF
As to B1, the binding result in assay [5] was “no binding”.
